# According to article PMC12133338:
# Protein sequences, listed by entry. Tags and fused reporters are not part of them.
# UniProt O14647: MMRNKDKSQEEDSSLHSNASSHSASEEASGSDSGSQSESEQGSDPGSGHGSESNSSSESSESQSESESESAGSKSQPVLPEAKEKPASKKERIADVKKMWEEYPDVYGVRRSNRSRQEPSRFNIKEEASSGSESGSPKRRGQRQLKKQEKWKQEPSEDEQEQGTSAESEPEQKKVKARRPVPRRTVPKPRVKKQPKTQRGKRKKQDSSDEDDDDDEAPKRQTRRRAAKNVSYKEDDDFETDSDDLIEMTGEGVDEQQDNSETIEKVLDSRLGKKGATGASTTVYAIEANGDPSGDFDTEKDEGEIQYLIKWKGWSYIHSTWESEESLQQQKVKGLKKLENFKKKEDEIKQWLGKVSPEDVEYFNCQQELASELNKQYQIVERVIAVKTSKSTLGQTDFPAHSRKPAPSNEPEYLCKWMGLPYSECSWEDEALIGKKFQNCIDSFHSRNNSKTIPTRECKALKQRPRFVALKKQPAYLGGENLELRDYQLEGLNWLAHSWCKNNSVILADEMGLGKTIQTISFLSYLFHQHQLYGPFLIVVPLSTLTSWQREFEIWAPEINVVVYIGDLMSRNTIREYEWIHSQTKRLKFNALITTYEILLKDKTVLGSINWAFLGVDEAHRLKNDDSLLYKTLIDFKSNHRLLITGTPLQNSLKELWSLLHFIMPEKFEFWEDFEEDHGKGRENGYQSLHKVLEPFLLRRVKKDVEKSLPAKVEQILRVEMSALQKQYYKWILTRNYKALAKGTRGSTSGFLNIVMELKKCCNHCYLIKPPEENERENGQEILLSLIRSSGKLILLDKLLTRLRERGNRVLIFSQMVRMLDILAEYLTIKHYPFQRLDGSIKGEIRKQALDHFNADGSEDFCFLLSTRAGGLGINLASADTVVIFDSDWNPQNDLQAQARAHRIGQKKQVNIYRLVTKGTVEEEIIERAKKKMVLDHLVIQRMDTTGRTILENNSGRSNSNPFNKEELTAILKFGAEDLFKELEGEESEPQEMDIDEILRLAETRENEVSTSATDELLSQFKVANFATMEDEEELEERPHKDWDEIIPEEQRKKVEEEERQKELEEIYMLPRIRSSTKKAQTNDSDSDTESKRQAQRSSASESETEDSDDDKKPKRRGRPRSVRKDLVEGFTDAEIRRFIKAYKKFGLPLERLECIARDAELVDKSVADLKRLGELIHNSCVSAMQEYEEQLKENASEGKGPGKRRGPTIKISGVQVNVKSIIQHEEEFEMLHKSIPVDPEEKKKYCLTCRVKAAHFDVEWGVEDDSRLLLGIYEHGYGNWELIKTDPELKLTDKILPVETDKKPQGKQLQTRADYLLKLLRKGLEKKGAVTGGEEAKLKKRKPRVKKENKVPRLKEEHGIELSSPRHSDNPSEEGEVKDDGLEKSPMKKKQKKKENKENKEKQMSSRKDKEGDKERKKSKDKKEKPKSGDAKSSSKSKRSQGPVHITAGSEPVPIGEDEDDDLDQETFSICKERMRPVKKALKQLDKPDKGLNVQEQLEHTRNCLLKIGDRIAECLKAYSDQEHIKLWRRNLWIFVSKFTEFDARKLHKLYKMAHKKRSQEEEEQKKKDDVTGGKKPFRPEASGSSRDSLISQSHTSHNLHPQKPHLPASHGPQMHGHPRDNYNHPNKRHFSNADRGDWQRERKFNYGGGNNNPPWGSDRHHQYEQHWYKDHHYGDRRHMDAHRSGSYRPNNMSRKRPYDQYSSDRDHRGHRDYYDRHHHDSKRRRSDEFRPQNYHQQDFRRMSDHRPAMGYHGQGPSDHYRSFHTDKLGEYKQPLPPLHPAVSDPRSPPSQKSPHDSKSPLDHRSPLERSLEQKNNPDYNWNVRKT
# UniProt Q14839: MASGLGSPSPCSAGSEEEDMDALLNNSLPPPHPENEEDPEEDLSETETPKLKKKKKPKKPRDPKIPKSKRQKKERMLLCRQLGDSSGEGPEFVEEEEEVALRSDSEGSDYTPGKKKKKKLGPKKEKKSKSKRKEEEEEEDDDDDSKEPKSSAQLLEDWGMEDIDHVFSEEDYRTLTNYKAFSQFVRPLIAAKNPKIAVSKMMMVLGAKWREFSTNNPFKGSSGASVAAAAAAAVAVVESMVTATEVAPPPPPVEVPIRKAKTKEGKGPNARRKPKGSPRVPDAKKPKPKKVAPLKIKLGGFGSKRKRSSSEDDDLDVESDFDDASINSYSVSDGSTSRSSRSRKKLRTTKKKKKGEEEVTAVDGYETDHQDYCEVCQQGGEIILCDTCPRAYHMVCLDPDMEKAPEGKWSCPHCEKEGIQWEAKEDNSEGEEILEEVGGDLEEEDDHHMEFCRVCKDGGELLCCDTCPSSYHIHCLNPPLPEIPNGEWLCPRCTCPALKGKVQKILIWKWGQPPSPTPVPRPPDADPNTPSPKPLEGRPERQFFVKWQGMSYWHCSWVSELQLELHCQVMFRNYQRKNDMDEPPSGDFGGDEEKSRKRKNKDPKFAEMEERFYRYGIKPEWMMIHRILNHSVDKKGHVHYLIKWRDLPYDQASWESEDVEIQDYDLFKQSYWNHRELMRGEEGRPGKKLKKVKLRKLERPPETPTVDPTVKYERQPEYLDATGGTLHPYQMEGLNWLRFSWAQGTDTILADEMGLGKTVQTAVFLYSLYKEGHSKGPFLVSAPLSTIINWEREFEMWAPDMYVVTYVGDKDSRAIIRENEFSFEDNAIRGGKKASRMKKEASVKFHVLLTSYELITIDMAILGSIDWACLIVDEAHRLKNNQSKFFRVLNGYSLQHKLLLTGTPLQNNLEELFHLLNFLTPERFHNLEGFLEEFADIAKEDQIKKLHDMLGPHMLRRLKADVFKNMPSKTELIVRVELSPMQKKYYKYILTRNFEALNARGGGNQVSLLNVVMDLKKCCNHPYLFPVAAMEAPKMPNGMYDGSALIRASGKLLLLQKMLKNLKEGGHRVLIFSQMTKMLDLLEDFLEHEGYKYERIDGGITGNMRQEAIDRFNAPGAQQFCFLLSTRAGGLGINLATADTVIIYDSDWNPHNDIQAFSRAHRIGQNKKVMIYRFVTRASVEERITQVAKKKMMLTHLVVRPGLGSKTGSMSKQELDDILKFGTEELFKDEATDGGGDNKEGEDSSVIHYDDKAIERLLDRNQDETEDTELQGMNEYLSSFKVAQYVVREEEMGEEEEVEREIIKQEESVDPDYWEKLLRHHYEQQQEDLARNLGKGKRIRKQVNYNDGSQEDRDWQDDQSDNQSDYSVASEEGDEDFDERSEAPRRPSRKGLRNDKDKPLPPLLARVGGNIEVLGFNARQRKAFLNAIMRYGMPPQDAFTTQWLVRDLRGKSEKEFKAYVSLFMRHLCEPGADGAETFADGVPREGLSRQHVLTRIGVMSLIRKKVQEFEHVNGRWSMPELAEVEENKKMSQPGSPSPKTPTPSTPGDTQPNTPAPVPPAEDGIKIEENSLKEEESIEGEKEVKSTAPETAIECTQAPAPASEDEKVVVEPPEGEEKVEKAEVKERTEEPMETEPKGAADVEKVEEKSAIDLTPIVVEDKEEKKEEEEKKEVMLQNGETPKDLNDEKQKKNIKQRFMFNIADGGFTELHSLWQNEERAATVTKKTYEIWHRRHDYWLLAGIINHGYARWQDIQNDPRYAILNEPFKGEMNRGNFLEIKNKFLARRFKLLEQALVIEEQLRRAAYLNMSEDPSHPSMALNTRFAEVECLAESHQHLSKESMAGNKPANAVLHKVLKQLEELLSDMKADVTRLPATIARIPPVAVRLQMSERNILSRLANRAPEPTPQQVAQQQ
# UniProt P38159: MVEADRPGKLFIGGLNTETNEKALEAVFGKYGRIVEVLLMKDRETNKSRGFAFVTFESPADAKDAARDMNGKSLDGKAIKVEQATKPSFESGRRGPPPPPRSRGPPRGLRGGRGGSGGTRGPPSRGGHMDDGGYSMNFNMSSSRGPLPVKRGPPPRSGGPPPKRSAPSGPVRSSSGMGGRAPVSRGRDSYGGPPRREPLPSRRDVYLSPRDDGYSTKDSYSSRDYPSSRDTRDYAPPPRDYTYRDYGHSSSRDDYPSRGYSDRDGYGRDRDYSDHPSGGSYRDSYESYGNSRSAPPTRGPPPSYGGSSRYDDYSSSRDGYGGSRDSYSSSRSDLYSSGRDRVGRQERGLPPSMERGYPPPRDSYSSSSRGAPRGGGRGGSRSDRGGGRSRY
# UniProt O60264: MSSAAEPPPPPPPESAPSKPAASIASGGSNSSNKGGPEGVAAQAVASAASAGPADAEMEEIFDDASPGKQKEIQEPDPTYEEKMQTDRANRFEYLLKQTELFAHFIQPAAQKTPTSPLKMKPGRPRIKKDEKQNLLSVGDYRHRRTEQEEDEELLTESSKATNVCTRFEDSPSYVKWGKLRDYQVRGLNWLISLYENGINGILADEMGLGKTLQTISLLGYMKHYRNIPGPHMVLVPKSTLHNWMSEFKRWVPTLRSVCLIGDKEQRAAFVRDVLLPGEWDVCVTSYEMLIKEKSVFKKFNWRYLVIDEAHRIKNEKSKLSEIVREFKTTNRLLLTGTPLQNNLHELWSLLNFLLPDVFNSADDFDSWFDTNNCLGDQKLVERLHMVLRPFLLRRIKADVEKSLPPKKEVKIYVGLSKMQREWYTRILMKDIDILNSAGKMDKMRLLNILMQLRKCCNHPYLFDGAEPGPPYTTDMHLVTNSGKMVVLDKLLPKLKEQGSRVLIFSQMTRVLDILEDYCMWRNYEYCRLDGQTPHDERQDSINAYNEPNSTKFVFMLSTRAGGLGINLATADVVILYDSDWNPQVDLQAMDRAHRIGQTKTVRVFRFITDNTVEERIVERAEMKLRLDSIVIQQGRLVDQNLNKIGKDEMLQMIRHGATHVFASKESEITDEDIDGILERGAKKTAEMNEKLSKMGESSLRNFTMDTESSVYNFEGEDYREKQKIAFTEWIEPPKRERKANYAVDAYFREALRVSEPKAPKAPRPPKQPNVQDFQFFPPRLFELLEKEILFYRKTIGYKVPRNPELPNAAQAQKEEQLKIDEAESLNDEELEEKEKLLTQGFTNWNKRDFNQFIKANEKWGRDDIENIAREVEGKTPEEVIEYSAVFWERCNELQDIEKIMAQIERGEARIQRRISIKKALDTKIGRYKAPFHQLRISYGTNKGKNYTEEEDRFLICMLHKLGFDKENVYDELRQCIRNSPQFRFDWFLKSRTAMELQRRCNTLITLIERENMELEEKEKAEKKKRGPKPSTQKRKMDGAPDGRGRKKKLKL
# UniProt Q13242: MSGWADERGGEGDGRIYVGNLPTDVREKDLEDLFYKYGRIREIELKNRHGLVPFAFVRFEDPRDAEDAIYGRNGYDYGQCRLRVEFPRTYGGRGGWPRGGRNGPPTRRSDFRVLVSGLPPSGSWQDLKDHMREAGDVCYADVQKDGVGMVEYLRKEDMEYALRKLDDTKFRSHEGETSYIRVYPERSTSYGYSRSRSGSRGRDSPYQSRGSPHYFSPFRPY
# UniProt P11387: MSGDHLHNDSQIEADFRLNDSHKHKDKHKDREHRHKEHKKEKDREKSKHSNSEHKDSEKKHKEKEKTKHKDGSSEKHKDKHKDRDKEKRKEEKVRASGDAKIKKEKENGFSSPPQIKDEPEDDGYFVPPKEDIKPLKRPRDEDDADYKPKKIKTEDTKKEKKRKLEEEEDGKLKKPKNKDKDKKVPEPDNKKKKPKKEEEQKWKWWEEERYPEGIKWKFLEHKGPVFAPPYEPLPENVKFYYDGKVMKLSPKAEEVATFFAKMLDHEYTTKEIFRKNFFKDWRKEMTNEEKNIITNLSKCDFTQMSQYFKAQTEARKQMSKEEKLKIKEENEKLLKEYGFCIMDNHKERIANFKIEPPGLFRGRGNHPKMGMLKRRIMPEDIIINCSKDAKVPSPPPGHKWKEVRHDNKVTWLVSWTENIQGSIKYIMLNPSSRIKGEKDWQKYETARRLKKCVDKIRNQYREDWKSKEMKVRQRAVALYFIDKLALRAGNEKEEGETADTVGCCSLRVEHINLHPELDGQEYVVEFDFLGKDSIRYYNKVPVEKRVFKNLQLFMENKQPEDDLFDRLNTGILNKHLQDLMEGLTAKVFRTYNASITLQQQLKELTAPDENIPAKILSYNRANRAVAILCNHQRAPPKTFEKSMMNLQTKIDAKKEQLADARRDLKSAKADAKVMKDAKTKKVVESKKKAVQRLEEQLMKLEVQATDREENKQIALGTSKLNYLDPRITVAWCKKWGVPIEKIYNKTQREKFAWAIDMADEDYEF
# Results are given in words; binding and its absence hold for the method and conditions named. In cells and extracts the contact can be indirect. A yes stands for co-enrichment or nearness to the bait. Other partners may have been found. No binding means not detected with the bait.
# T1: Kaiso (ZBTB33) (human (endogenous in HCT116)) (UniProt Q86T24)
# T1 sequence: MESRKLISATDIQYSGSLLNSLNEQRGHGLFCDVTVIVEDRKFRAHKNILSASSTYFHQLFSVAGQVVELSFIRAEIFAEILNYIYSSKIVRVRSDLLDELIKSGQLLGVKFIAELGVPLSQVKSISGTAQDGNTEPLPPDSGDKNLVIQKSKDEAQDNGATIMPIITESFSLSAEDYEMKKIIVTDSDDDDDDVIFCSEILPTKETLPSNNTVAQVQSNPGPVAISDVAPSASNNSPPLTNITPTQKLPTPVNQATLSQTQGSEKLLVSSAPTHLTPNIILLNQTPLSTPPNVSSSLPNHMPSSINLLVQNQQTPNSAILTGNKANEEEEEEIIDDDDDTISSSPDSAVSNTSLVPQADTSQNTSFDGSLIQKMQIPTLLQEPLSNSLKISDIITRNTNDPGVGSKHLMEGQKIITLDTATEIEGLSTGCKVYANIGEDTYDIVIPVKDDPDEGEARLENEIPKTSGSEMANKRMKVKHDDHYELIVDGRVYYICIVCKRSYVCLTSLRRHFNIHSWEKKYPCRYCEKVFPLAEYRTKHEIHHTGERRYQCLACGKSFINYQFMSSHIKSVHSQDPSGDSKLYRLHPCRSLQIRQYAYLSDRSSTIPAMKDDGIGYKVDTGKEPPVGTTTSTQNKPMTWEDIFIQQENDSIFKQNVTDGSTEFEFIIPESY
# Molecular target: T1, Kaiso (ZBTB33) (human (endogenous in HCT116))
# Experiment: affinity purification with mass spectrometry; ReCLIP: HCT116 nuclei crosslinked with 0.5 mM DSP and 0.5 mM DTME (protein-protein only, no protein/DNA crosslinking), high-salt nuclear extract, IP with Kaiso monoclonal antibody 6F or 12G on Protein G Dynabeads (mouse IgG control), elution with RIPA + 50 mM DTT, LC-MS/MS
row,binding,Molecule
1,no binding,CHD2 (from UniProt O14647 1-1828)
2,binds,CHD4 (from UniProt Q14839 1-1912)
3,binds,RBMX (from UniProt P38159 1-391)
4,binds,SMARCA5 (from UniProt O60264 1-1052)
5,binds,SRSF9 (from UniProt Q13242 1-221)
6,binds,TOP1 (topoisomerase 1) (from UniProt P11387 1-765)
7,binds,"NONO (protein, UniProt Q15233 1-471) MQSNKTFNLEKQNHTPRKHHQHHHQQQHHQQQQQQPPPPPIPANGQQASSQNEGLTIDLKNFRKPGEKTFTQRSRLFVGNLPPDITEEEMRKLFEKYGKAGEVFIHKDKGFGFIRLETRTLAEIAKVELDNMPLRGKQLRVRFACHSASLTVRNLPQYVSNELLEEAFSVFGQVERAVVIVDDRGRPSGKGIVEFSGKPAARKALDRCSEGSFLLTTFPRPVTVEPMDQLDDEEGLPEKLVIKNQQFHKEREQPPRFAQPGSFEYEYAMRWKALIEMEKQQQDQVDRNIKEAREKLEMEMEAARHEHQVMLMRQDLMRRQEELRRMEELHNQEVQKRKQLELRQEEERRRREEEMRRQQEEMMRRQQEGFKGTFPDAREQEIRMGQMAMGGAMGINNRGAMPPAPVPAGTPAPPGPATMMPDGTLGLTPPTTERFGQAATMEGIGAIGGTPPAFNRAAPGAEFAPNKRRRY"
8,binds,"ADAR (protein, UniProt P55265 1-1226) MNPRQGYSLSGYYTHPFQGYEHRQLRYQQPGPGSSPSSFLLKQIEFLKGQLPEAPVIGKQTPSLPPSLPGLRPRFPVLLASSTRGRQVDIRGVPRGVHLRSQGLQRGFQHPSPRGRSLPQRGVDCLSSHFQELSIYQDQEQRILKFLEELGEGKATTAHDLSGKLGTPKKEINRVLYSLAKKGKLQKEAGTPPLWKIAVSTQAWNQHSGVVRPDGHSQGAPNSDPSLEPEDRNSTSVSEDLLEPFIAVSAQAWNQHSGVVRPDSHSQGSPNSDPGLEPEDSNSTSALEDPLEFLDMAEIKEKICDYLFNVSDSSALNLAKNIGLTKARDINAVLIDMERQGDVYRQGTTPPIWHLTDKKRERMQIKRNTNSVPETAPAAIPETKRNAEFLTCNIPTSNASNNMVTTEKVENGQEPVIKLENRQEARPEPARLKPPVHYNGPSKAGYVDFENGQWATDDIPDDLNSIRAAPGEFRAIMEMPSFYSHGLPRCSPYKKLTECQLKNPISGLLEYAQFASQTCEFNMIEQSGPPHEPRFKFQVVINGREFPPAEAGSKKVAKQDAAMKAMTILLEEAKAKDSGKSEESSHYSTEKESEKTAESQTPTPSATSFFSGKSPVTTLLECMHKLGNSCEFRLLSKEGPAHEPKFQYCVAVGAQTFPSVSAPSKKVAKQMAAEEAMKALHGEATNSMASDNQPEGMISESLDNLESMMPNKVRKIGELVRYLNTNPVGGLLEYARSHGFAAEFKLVDQSGPPHEPKFVYQAKVGGRWFPAVCAHSKKQGKQEAADAALRVLIGENEKAERMGFTEVTPVTGASLRRTMLLLSRSPEAQPKTLPLTGSTFHDQIAMLSHRCFNTLTNSFQPSLLGRKILAAIIMKKDSEDMGVVVSLGTGNRCVKGDSLSLKGETVNDCHAEIISRRGFIRFLYSELMKYNSQTAKDSIFEPAKGGEKLQIKKTVSFHLYISTAPCGDGALFDKSCSDRAMESTESRHYPVFENPKQGKLRTKVENGEGTIPVESSDIVPTWDGIRLGERLRTMSCSDKILRWNVLGLQGALLTHFLQPIYLKSVTLGYLFSQGHLTRAICCRVTRDGSAFEDGLRHPFIVNHPKVGRVSIYDSKRQSGKTKETSVNWCLADGYDLEILDGTRGTVDGPRNELSRVSKKNIFLLFKKLCSFRYRRDLLRLSYGEAKKAARDYETAKNYFKKGLKDMGYGNWISKPQEEKNFYLCPV"
9,binds,"PSPC1 (protein, UniProt Q8WXF1 1-523) MMLRGNLKQVRIEKNPARLRALESAVGESEPAAAAAMALALAGEPAPPAPAPPEDHPDEEMGFTIDIKSFLKPGEKTYTQRCRLFVGNLPTDITEEDFKRLFERYGEPSEVFINRDRGFGFIRLESRTLAEIAKAELDGTILKSRPLRIRFATHGAALTVKNLSPVVSNELLEQAFSQFGPVEKAVVVVDDRGRATGKGFVEFAAKPPARKALERCGDGAFLLTTTPRPVIVEPMEQFDDEDGLPEKLMQKTQQYHKEREQPPRFAQPGTFEFEYASRWKALDEMEKQQREQVDRNIREAKEKLEAEMEAARHEHQLMLMRQDLMRRQEELRRLEELRNQELQKRKQIQLRHEEEHRRREEEMIRHREQEELRRQQEGFKPNYMENREQEMRMGDMGPRGAINMGDAFSPAPAGNQGPPPMMGMNMNNRATIPGPPMGPGPAMGPEGAANMGTPMMPDNGAVHNDRFPQGPPSQMGSPMGSRTGSETPQAPMSGVGPVSGGPGGFGRGSQGGNFEGPNKRRRY"
10,binds,"MATR3 (protein, UniProt P43243 1-847) MSKSFQQSSLSRDSQGHGRDLSAAGIGLLAAATQSLSMPASLGRMNQGTARLASLMNLGMSSSLNQQGAHSALSSASTSSHNLQSIFNIGSRGPLPLSSQHRGDADQASNILASFGLSARDLDELSRYPEDKITPENLPQILLQLKRRRTEEGPTLSYGRDGRSATREPPYRVPRDDWEEKRHFRRDSFDDRGPSLNPVLDYDHGSRSQESGYYDRMDYEDDRLRDGERCRDDSFFGETSHNYHKFDSEYERMGRGPGPLQERSLFEKKRGAPPSSNIEDFHGLLPKGYPHLCSICDLPVHSNKEWSQHINGASHSRRCQLLLEIYPEWNPDNDTGHTMGDPFMLQQSTNPAPGILGPPPPSFHLGGPAVGPRGNLGAGNGNLQGPRHMQKGRVETSRVVHIMDFQRGKNLRYQLLQLVEPFGVISNHLILNKINEAFIEMATTEDAQAAVDYYTTTPALVFGKPVRVHLSQKYKRIKKPEGKPDQKFDQKQELGRVIHLSNLPHSGYSDSAVLKLAEPYGKIKNYILMRMKSQAFIEMETREDAMAMVDHCLKKALWFQGRCVKVDLSEKYKKLVLRIPNRGIDLLKKDKSRKRSYSPDGKESPSDKKSKTDGSQKTESSTEGKEQEEKSGEDGEKDTKDDQTEQEPNMLLESEDELLVDEEEAAALLESGSSVGDETDLANLGDVASDGKKEPSDKAVKKDGSASAAAKKKLKKVDKIEELDQENEAALENGIKNEENTEPGAESSENADDPNKDTSENADGQSDENKDDYTIPDEYRIGPYQPNVPVGIDYVIPKTGFYCKLCSLFYTNEEVAKNTHCSSLPHYQKLKKFLNKLAEERRQKKET"
